According to article PMC10969620:
No constants are given. Whether binding was seen depends on the method and setting. For some assays here: In cells and extracts the contact can be indirect. Some binding calls cover weakened binding; strength is not graded here. Where a sequence is shown, tags or fusion partners need not be part of it.

By UniProt entry, the sequences of proteins in these tests, tags left out. Residues count along the entry.
UniProt P28908, residues 19-385: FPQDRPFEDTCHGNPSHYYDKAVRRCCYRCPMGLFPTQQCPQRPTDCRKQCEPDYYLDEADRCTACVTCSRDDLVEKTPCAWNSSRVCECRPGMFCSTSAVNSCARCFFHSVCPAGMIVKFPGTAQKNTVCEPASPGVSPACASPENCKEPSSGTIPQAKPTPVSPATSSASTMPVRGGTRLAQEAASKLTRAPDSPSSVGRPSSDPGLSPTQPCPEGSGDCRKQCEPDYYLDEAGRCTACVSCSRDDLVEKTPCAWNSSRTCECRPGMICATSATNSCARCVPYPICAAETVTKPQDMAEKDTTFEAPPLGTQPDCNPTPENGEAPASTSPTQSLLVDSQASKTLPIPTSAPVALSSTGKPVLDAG

Experiments:
[1] = target: CD30-Fc recombinant protein (UniProt P28908); assay: plate-based binding assay (Meso Scale electrochemiluminescence); CD30-Fc coated on the wells; serum-free supernatants of HEK cells transfected with Iso1 with or without Iso2-FLAG; detection by Iso1-specific anti-CD30L or anti-FLAG; only the target purified
[2] = target: CD30-Fc recombinant protein (UniProt P28908); assay: pull-down; lysates of HEK cells transfected with 0, 625 or 2500 ng Iso1 plasmid with or without 2500 ng Iso2-FLAG plasmid, incubated 1 h with 5 ug CD30-Fc, then protein A/G beads; 8 washes in lysis buffer (1% Triton, 20 mM Tris pH 7.4, 100 mM NaCl); Western blot with pan-anti-CD30L and anti-FLAG; only the target purified

binding [1]: binds
binding [2]: binds
B1: untagged CD30 ligand isoform 1 (ligand, UniProt P32971 1-234)
chain: MDPGLQQALNGMAPPGDTAMHVPAGSVASHLGTTSRSYFYLTTATLALCLVFTVATIMVLVVQRTDSIPNSPDNVPLKGGNCSEDLLCILKRAPFKKSWAYLQVAKHLNKTKLSWNKDGILHGVRYQDGNLVIQFPGLYFIICQLQFLVQCPNNSVDLKLELLINKHIKKQALVTVCESGMQTKHVYQNLSQFLLDYLQVNTTISVNVDTFQYIDTSTFPLENVLSIFLYSNSD
